Data as given in PubChem BioAssay AID504786 (Drosophila RNAi Screening Center, 2011).
Aim: 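Knock-downs reducing HIF reporter induction by the iron chelator DFO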 (primary screen). System: Drosophila S2 cells with a stable HIF luciferase reporter. Reagent: long dsRNA against Drosophila genes, about 0.2 µg dsRNA per well of a 384-well plate. Timing: three days of knock-down, then 20 h of DFO before reading. Conditions: desferrioxamine (DFO) at 100 µM, an iron chelator that mimics hypoxia, for 20 h. Read-out: 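HIF reporter luminescence in cells given 100 µM DFO for 20 h, using the mouse ldh-a hypoxia-response element, scored as per-plate z-scores; higher means greater loss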. Scale: z-score: higher = stronger loss of HIF reporter signal.
The screen tested about 21,000 reagents; shown is a random part of those with a known target gene and a result. 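Primary screen; positive scores mean lost reporter signal, so the sign may be inverted from the usual convention.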 The numbers tell different reagents against one gene apart. Names joined by + are all predicted targets of the reagent. Further read-outs or replicates are left out here. No sequences are given here.

| gene | reagent no. | z-score, replicate 1 |
| --- | --- | --- |
| His2B:CG33894 + His2B:CG33872 + His2B:CG33902 + 20 more | 1 | 0.5 |
| CG7387 | 1 | -0.3 |
| CG14306 (retired record) | 1 | -0.9 |
| CG10621 | 1 | -0.3 |
| NC2beta (Negative Cofactor 2beta) | 1 | -0.4 |
| CG15473 | 1 | -0.3 |
| CG42557 + CG42558 | 1 | -0.4 |
| CG42557 + CG42558 | 2 | -0.2 |
| CG34165 | 1 | -0.2 |
| CG10959 | 1 | -0.1 |
| Khc (Kinesin heavy chain) | 1 | -0.3 |
| CG32579 | 1 | -0.2 |
| erm (earmuff) | 1 | -0.2 |
| CG13972 | 1 | 0.3 |
| Lcp65Af | 1 | -0.3 |
| CG42686 (retired record) | 1 | 3.9 |
| CG42686 (retired record) | 2 | -0.1 |
| CG15676 | 1 | -0.2 |
| CG16749 | 1 | -0.4 |
| CG12115 | 1 | -0.2 |
| Gnpat (Glyceronephosphate O-acyltransferase) | 1 | 0.2 |
| X11Lbeta | 1 | -0.3 |
| X11Lbeta | 2 | -0.2 |
| Bet3 (Blocked early in transport 3) | 1 | -0.5 |
| CG32833 | 1 | -0.3 |
| CG12935 | 1 | -0.3 |
| Vrp1 (Verprolin 1) | 1 | -0.2 |
| CG3600 (retired record) | 1 | -0.3 |
| Dic3 | 1 | -0.4 |
| Ns4 (Nucleostemin 4) | 1 | -0.3 |
| CG4408 | 1 | -0.2 |
| EndoB (Endophilin B) | 1 | -0.3 |
| mlt (mulet) | 1 | -0.4 |
| sw (short wing) | 1 | -0.3 |
| Vha16-5 (Vacuolar H[+] ATPase 16kD subunit 5) | 1 | -0.3 |
| CG6769 | 1 | -0.3 |
| Sytalpha (Synaptotagmin alpha) | 1 | -0.3 |
| Lectin-galC1 (Galactose-specific C-type lectin) | 1 | -0.2 |
| dob (doppelganger von brummer) | 1 | -0.3 |
| Pp1-Y1 (Protein phosphatase 1, Y-linked 1) | 1 | -0.2 |
| Spn42Db (Serpin 42Db) | 1 | -0.1 |
| CG14561 | 1 | -0.2 |
| CG1640 | 1 | 0 |
| CG4278 | 1 | -0.3 |
| PLCXD | 1 | -0.3 |
| CG9346 | 1 | 0.9 |
| Spx (Spliceosomal protein on the X) | 1 | 4.6 |
| CG33325 | 1 | -0.3 |
| ZC3H3 | 1 | 6.5 |
| Cyp6a23 (Cytochrome P450 6a23) | 1 | -0.1 |
| MED1 (Mediator complex subunit 1) | 1 | -0.1 |
| Gr64b (Gustatory receptor 64b) | 1 | -0.2 |
| CG6294 + CG6299 + CG15642 | 1 | -0.4 |
| CG12661 | 1 | -0.1 |
| pip (pipe) | 1 | -0.2 |
| dod (dodo) | 1 | 0.2 |
| CG40378 (retired record) | 1 | 0.4 |
| Fign (Fidgetin) | 1 | -0.3 |
| kmr (kramer) | 1 | -0.4 |
| kmr (kramer) | 2 | -0.3 |
| kmr (kramer) | 3 | 0 |
| kmr (kramer) | 4 | -0.1 |
| CG31638 | 1 | 0 |
| CG31638 | 2 | -0.1 |
| TrpRS (Tryptophanyl-tRNA synthetase) | 1 | -0.1 |
| EbpII (Ejaculatory bulb protein II) | 1 | -0.2 |
| rhi (rhino) | 1 | -0.2 |
| hec (hector) | 1 | -0.3 |
| tau | 1 | -0.7 |
| CG13423 | 1 | -0.1 |
| alpha4GT1 (alpha1,4-galactosyltransferase 1) | 1 | -0.3 |
| CG33272 | 1 | -0.3 |
| egh (egghead) | 1 | -0.4 |
| Pect (Phosphoethanolamine cytidylyltransferase) | 1 | -0.4 |
| Pect (Phosphoethanolamine cytidylyltransferase) | 2 | -0.2 |
| CG46339 | 1 | -0.3 |
| CG4229 | 1 | -0.2 |
| p53 | 1 | -0.2 |
| CG32694 | 1 | -0.1 |
| CG32694 | 2 | -0.1 |
| SLO2 (slowpoke 2) | 1 | 5.2 |
| SLO2 (slowpoke 2) | 2 | -0.3 |
| SLO2 (slowpoke 2) | 3 | -0.2 |
| SLO2 (slowpoke 2) | 4 | -0.3 |
| SLO2 (slowpoke 2) | 5 | 2.4 |
